Test results taken from the supplement of paper PMC10849652.
The list shows a part of the results.

Amino acid sequences for entries named in this document (tags omitted). A change or cut given only in a name is not applied to a line headed by its entry.
UniProt Q15366, whole entry, looked up: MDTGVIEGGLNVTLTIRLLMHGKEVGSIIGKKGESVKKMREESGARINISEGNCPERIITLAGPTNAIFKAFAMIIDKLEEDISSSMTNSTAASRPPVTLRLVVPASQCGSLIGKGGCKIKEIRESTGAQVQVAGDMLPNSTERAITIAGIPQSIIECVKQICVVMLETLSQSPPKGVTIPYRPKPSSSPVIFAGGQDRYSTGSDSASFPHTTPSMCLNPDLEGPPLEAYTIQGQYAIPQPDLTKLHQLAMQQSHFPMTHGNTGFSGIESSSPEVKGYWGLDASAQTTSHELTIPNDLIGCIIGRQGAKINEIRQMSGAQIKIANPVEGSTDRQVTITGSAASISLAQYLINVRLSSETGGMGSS
UniProt Q9Y5K3: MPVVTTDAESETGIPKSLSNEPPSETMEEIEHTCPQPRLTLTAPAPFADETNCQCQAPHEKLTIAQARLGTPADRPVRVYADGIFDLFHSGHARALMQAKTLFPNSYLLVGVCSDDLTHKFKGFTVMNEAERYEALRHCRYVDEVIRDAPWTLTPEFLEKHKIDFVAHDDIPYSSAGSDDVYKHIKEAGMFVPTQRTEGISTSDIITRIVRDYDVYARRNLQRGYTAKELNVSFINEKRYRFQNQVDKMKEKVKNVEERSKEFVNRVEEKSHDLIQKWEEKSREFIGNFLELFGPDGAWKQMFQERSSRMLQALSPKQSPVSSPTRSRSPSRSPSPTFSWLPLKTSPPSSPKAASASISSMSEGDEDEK
UniProt Q7L3T8: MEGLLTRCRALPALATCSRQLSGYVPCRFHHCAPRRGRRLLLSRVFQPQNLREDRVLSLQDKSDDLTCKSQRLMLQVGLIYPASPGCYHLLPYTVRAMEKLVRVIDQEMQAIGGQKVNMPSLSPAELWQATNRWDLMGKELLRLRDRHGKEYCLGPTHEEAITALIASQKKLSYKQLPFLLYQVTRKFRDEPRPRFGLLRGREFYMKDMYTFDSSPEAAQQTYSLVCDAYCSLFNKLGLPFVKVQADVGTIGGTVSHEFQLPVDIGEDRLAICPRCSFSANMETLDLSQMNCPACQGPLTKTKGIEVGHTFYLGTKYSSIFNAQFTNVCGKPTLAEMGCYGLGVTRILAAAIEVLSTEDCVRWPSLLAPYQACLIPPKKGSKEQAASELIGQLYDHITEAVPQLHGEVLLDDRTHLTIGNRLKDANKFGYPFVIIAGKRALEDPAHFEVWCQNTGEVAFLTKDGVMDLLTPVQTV
UniProt Q5T2R2: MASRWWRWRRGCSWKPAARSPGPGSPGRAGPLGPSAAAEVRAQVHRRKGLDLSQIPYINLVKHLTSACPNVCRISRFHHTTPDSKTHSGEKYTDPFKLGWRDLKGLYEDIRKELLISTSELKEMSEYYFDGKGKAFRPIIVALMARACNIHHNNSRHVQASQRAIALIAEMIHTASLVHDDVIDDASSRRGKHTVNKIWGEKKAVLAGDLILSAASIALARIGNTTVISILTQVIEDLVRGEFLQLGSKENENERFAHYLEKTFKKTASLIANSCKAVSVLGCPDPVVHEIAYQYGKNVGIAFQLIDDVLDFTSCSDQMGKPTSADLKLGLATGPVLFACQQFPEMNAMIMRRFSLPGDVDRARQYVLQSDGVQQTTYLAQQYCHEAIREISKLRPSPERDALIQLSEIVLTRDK
UniProt Q9NTI5: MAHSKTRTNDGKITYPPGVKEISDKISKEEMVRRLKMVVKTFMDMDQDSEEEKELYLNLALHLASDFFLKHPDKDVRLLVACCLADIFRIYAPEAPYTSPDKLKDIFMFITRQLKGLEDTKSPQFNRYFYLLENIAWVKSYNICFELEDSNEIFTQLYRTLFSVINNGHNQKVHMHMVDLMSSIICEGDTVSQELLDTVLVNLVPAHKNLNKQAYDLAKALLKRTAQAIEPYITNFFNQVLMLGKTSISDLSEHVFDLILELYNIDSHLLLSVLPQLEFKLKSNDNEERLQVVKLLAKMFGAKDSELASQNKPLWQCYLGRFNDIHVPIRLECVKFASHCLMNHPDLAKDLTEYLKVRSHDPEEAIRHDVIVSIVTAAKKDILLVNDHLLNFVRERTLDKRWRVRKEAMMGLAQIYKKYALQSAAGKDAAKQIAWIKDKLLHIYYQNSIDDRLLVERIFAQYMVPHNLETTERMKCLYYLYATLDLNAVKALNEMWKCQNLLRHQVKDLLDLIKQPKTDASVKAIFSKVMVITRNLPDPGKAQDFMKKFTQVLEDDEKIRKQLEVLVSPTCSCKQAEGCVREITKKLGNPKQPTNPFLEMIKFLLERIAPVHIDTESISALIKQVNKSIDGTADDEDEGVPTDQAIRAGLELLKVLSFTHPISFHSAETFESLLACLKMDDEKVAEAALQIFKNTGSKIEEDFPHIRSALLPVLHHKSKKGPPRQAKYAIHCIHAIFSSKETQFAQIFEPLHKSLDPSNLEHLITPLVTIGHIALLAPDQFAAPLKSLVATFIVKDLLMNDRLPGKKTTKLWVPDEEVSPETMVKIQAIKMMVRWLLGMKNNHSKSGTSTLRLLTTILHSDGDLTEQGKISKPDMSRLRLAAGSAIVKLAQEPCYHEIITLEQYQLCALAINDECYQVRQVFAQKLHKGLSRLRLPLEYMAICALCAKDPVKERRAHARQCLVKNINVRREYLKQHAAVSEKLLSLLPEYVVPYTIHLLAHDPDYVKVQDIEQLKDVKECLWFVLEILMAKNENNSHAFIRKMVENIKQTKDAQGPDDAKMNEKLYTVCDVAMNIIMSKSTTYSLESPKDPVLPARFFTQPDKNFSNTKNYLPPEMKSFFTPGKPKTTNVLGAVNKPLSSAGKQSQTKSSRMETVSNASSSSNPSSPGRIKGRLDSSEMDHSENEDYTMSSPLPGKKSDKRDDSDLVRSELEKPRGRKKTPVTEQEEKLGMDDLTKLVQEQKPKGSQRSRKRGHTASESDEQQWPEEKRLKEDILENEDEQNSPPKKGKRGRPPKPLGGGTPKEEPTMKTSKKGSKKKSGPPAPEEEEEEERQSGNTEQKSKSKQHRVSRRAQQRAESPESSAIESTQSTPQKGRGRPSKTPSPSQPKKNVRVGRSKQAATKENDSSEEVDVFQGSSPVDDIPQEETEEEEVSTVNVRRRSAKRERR
UniProt Q9BRX2, whole entry, looked up: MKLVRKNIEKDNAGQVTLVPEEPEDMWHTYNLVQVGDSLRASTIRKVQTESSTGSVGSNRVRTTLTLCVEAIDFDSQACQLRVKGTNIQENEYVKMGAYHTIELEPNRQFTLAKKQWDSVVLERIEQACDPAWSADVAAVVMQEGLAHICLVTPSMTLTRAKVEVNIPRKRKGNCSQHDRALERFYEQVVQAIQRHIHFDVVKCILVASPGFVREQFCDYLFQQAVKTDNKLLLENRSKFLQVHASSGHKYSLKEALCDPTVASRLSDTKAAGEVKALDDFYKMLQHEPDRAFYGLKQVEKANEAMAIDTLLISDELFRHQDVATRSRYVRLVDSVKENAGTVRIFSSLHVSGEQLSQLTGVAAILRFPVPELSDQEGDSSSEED
UniProt H7BZJ3: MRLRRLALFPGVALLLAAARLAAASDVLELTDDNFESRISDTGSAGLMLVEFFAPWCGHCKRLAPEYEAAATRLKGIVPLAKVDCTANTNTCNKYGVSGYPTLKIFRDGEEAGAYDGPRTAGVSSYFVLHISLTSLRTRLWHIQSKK
UniProt O00330, whole entry, looked up: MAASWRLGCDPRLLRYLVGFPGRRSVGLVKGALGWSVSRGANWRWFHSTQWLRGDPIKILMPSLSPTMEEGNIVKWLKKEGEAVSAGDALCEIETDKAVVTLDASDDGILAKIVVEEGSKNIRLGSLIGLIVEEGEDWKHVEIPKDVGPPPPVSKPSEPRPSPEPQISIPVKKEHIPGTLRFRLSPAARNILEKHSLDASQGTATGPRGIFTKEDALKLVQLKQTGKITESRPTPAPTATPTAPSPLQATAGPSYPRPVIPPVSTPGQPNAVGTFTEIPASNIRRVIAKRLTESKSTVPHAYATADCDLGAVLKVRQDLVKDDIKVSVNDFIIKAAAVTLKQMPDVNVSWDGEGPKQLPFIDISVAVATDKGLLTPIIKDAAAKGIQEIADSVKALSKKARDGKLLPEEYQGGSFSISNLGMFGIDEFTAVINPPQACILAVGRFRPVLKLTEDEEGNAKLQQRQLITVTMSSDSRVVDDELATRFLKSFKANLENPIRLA
UniProt P08559, whole entry, looked up: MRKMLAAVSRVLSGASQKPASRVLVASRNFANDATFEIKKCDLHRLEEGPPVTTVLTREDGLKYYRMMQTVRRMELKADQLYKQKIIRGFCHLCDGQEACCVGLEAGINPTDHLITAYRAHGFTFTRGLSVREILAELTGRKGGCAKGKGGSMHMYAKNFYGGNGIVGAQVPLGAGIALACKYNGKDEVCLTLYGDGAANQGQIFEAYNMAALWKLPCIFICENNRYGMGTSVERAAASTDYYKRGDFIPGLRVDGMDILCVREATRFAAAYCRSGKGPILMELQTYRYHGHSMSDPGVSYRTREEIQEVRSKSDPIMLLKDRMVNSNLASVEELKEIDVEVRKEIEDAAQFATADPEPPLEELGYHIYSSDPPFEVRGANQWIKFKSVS
UniProt Q8N0Y7: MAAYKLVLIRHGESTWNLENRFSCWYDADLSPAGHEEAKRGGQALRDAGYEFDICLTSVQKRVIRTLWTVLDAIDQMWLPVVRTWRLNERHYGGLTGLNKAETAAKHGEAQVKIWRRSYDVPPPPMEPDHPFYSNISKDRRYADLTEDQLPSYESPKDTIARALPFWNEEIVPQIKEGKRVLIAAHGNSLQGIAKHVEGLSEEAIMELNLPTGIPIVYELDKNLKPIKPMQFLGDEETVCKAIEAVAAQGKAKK
UniProt O15212, whole entry, looked up: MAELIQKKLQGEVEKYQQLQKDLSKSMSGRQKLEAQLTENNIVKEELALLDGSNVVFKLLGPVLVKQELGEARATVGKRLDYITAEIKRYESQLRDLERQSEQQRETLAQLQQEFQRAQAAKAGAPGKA
UniProt P05166: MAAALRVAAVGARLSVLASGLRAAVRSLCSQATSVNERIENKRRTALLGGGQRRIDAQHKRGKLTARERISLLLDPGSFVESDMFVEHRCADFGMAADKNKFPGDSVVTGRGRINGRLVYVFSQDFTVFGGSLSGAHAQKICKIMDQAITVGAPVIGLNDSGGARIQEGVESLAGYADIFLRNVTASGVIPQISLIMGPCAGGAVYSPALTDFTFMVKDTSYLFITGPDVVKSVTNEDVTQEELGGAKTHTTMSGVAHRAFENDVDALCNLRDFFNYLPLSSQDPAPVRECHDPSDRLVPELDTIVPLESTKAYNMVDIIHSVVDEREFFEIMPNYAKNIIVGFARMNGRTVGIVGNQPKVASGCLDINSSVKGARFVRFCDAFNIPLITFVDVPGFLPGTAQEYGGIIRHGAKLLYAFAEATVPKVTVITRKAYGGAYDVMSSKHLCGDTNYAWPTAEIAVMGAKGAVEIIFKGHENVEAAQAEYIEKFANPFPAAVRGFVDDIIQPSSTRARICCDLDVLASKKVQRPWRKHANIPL
UniProt Q16342: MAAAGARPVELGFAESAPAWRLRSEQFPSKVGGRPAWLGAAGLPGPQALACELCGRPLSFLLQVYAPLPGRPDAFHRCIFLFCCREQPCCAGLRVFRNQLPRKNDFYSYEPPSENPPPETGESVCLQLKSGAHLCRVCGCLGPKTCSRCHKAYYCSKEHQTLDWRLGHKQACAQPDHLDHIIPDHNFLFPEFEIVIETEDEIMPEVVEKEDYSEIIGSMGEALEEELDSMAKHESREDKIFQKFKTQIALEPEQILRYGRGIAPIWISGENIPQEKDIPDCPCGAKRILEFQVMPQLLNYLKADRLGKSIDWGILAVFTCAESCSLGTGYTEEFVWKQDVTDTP
UniProt Q9BUH6, whole entry, looked up: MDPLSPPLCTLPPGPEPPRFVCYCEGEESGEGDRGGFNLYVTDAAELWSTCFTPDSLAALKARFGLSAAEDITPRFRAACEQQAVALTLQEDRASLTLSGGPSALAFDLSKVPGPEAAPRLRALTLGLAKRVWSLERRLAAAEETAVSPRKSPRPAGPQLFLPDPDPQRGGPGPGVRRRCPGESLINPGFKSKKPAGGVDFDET

What was measured:
Assay in all cases: log2 fold change, soluble protein after heating vs DMSO (PISA); higher = thermal stabilisation; K562 lysate, 10 uM; active = over 0.2 and 3.5 SD of the protein, either way, in both replicates (recomputed)
alvocidib = compound: CN1CC[C@H](c2c(O)cc(O)c3c(=O)cc(-c4ccccc4Cl)oc23)[C@H](O)C1 [alvocidib]
Procedure, shortened: (§1)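 Dounce homogenisation of K562 pellets in PBS pH 7.4 with 1 mM MgCl2 produced a crude extract, used at 1 mg/mL protein. Exposure to 10 μM compound lasted 30 min, and aliquots were then heated for 3 min across 48°C-58°C, pooled and brought to 0.5% NP-40 at 4°C. The supernatant after 21,000xg for 90 min was quantified by TMTpro 16plex LC-MS/MS with channel sums equalised. Duplicate values are given as log-two fold change in thermal stability relative to solvent controls.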

Tubastatin A = compound: CN1CCc2c(c3ccccc3n2Cc2ccc(C(=O)NO)cc2)C1 [Tubastatin A]
Procedure, shortened: as §1

[1] = compound: CNC(=O)C1=CC=CC=C1NC2=NC(=NC=C2Cl)NC3=C(C=C(C=C3)N4CCOCC4)OC
Procedure, shortened: as §1

defactinib = compound: CNC(=O)c1ccc(Nc2ncc(C(F)(F)F)c(NCc3nccnc3N(C)S(C)(=O)=O)n2)cc1 [defactinib]
Procedure, shortened: as §1

[2] = compound: CNc1nc(-c2ccc3c(N)n[nH]c3c2)cc(N2C[C@@H](C(=O)NC3CCCCC3)CC[C@H]2C)n1
Procedure, shortened: as §1

encorafenib = compound: COC(=O)N[C@@H](C)CNc1nccc(-c2cn(C(C)C)nc2-c2cc(Cl)cc(NS(C)(=O)=O)c2F)n1 [encorafenib]
Procedure, shortened: as §1

[3] = compound: COC(=O)[C@H](CCSC)NC(=O)C1=C(C=C(C=C1)NC[C@H](CS)N)C2=CC=CC=C2
Procedure, shortened: as §1

alisertib = compound: COc1cc(Nc2ncc3c(n2)-c2ccc(Cl)cc2C(c2c(F)cccc2OC)=NC3)ccc1C(=O)O [alisertib]
Procedure, shortened: as §1

[4] = compound: COc1cc2nc(-c3cc(F)ccc3O)nc(N[C@@H]3CNC[C@H]3C(C)(C)O)c2cc1OC
Procedure, shortened: as §1

gefitinib = compound: COc1cc2ncnc(Nc3ccc(F)c(Cl)c3)c2cc1OCCCN1CCOCC1 [gefitinib]
Procedure, shortened: as §1

Measured: log2 fold change

PCBP2 isoform 3 (UniProt Q15366)
inactive: alvocidib 0.038 | Tubastatin A -0.074 | [1] 0.017 | defactinib 0.006 | [2] -0.075 | encorafenib 0.049 | [3] -0.048 | alisertib -0.001 | [4] -0.006 | gefitinib -0.009

PCYT1B (UniProt Q9Y5K3)
inactive: alvocidib -0.007 | Tubastatin A -0.023 | [1] 0.033 | defactinib 0.01 | [2] 0.086 | encorafenib 0.047 | [3] -0.025 | alisertib 0.033 | [4] -0.02 | gefitinib 0.033

PARS2 (UniProt Q7L3T8)
inactive: alvocidib 0.015 | Tubastatin A -0.012 | [1] 0.046 | defactinib 0.008 | [2] 0.039 | encorafenib 0.025 | [3] -0.099 | alisertib -0.019 | [4] -0.001 | gefitinib 0.014

PDSS1 (UniProt Q5T2R2)
inactive: alvocidib 0.042 | Tubastatin A 0.08 | [1] 0.013 | defactinib -0.016 | [2] 0 | encorafenib 0.016 | [3] 0.037 | alisertib 0.018 | [4] -0.116 | gefitinib 0.128

PDS5B (UniProt Q9NTI5)
inactive: alvocidib -0.006 | Tubastatin A -0.048 | [1] 0.019 | defactinib 0.008 | [2] -0.025 | encorafenib 0.019 | [3] -0.003 | alisertib 0.012 | [4] -0.024 | gefitinib 0.007

PELO (UniProt Q9BRX2)
inactive: alvocidib 0.149 | Tubastatin A -0.086 | [1] 0.026 | defactinib -0.022 | [2] -0.043 | encorafenib 0.056 | [3] 0.084 | alisertib 0.008 | [4] 0.006 | gefitinib 0.006

PDIA3 (UniProt H7BZJ3)
inactive: alvocidib -0.055 | Tubastatin A 0.148 | [1] -0.093 | defactinib -0.002 | [2] 0.007 | encorafenib 0.066 | [3] -0.036 | alisertib -0.095 | [4] -0.005 | gefitinib 0.02

PDHX (UniProt O00330)
inactive: alvocidib 0.033 | Tubastatin A 0.031 | [1] -0.007 | defactinib -0.02 | [2] 0.005 | encorafenib 0.011 | [3] -0.034 | alisertib 0.012 | [4] -0.012 | gefitinib -0.001

PDHA1 isoform 4 (UniProt P08559)
inactive: alvocidib 0.053 | Tubastatin A -0.057 | [1] 0.027 | defactinib -0.019 | [2] -0.007 | encorafenib -0.024 | [3] 0.11 | alisertib -0.002 | [4] 0 | gefitinib 0.011

PGAM4 (UniProt Q8N0Y7)
inactive: alvocidib 0.016 | Tubastatin A 0.056 | [1] -0.008 | defactinib -0.006 | [2] 0.036 | encorafenib -0.008 | [3] -0.017 | alisertib 0.028 | [4] 0.014 | gefitinib -0.054

PFDN6 (UniProt O15212)
inactive: alvocidib 0.071 | Tubastatin A 0.052 | [1] 0.021 | defactinib 0.023 | [2] 0.037 | encorafenib -0.002 | [3] -0.062 | alisertib -0.015 | [4] 0.007 | gefitinib -0.048

PCCB (UniProt P05166)
inactive: alvocidib -0.018 | Tubastatin A 0.037 | [1] -0.016 | defactinib 0.026 | [2] -0.015 | encorafenib 0.019 | [3] -0.022 | alisertib 0 | [4] -0.023 | gefitinib 0.045

Retrieved one by one from above (2):
PGAM4 (UniProt Q8N0Y7)
inactive: alvocidib 0.016 | Tubastatin A 0.056 | [1] -0.008 | defactinib -0.006 | [2] 0.036 | encorafenib -0.008 | [3] -0.017 | alisertib 0.028 | [4] 0.014 | gefitinib -0.054

PCCB (UniProt P05166)
inactive: alvocidib -0.018 | Tubastatin A 0.037 | [1] -0.016 | defactinib 0.026 | [2] -0.015 | encorafenib 0.019 | [3] -0.022 | alisertib 0 | [4] -0.023 | gefitinib 0.045

The list continues.

PDCD2 (UniProt Q16342)
inactive: alvocidib 0.001 | Tubastatin A -0.017 | [1] 0.003 | defactinib -0.01 | [2] 0.02 | encorafenib -0.018 | [3] 0.076 | alisertib -0.015 | [4] 0.012 | gefitinib -0.051

PAXX (UniProt Q9BUH6)
inactive: alvocidib 0.02 | Tubastatin A -0.007 | [1] 0.042 | defactinib -0.032 | [2] -0.024 | encorafenib 0.017 | [3] -0.04 | alisertib -0.015 | [4] 0.014 | gefitinib -0.01
